The list shows a part of the results. Repeats are few or missing, and single values can be far off.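 Imaging used 1,536-well plates; nuclei positive for cleaved PARP by antibody were divided by total DNA-stained nuclei to yield the apoptosis fraction. Doses for screening kept most cells viable, and cell lines differ markedly in resting and induced cleaved-PARP levels.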
Legend:
Assay in all cases: cleaved PARP positive nuclei fraction relative to DMSO control; melanoma cells; higher = more apoptosis
Details in all cases: library dose: low library concentration; 72 h
MZ2-MEL = test system: MZ2-MEL
MeWo = test system: MeWo
RPMI7951 = test system: RPMI7951
RVH-421 = test system: RVH-421
SkMel28 = test system: SkMel28
SkMel2 = test system: SkMel2
SkMel30 = test system: SkMel30
UACC62 = test system: UACC62

Compound | cleaved PARP positive nuclei fraction (MZ2-MEL) [%] | cleaved PARP positive nuclei fraction (MeWo) [%] | cleaved PARP positive nuclei fraction (RPMI7951) [%] | cleaved PARP positive nuclei fraction (RVH-421) [%] | cleaved PARP positive nuclei fraction (SkMel28) [%] | cleaved PARP positive nuclei fraction (SkMel2) [%] | cleaved PARP positive nuclei fraction (SkMel30) [%] | cleaved PARP positive nuclei fraction (UACC62) [%]
C[C@]1(O)C[C@@H](c2nc(-c3ccc4ccc(-c5ccccc5)nc4c3)c3c(N)nccn32)C1 + COc1ccc(Cl)c(Nc2nc3ccccc3nc2NS(=O)(=O)c2cccc(NC(=O)C(C)(C)N)c2)c1 [XL147] (first compound 0.4 µM, partner dose 0.8 µM) | 154 | 92.5 | 118 | 65.8 | 81 | 53.1 | 105 | 265
CC(=O)O[C@@]12CO[C@@H]1C[C@H](O)[C@@]1(C)C(=O)[C@H](O)C3=C(C)[C@@H](OC(=O)[C@H](O)[C@@H](NC(=O)OC(C)(C)C)c4ccccc4)C[C@@](O)([C@@H](OC(=O)c4ccccc4)[C@H]21)C3(C)C [Docetaxel] + Cc1nc(Nc2ncc(C(=O)Nc3c(C)cccc3Cl)s2)cc(N2CCN(CCO)CC2)n1 [dasatanib] (first compound 0.0001 µM, partner dose 0.004 µM) | 887 | 621 | 355 | 430 | 182 | 1500 | 530 | 680
NC(=O)c1ccc(N(C(N)=O)c2c(F)cccc2F)nc1-c1ccc(F)cc1F + OCc1c[nH]c2ccccc12 [Indole-3-carbinol] (first compound 0.4 µM, partner dose 0.8 µM) | 88.1 | 48.7 | 123 | 85.8 | 112 | 114 | 93 | 132
CCN(CC)CCNC(=O)c1c(C)[nH]c(/C=C2\C(=O)Nc3ccc(F)cc32)c1C [sunitinib] + O=C(O)[C@@H]1[O][Sb](=[O])([O][Sb]2(=[O])[O][C@H]([C@H](O)CO)[C@H](O)[C@H](C(=O)O)[O]2)[O][C@H]([C@H](O)CO)[C@@H]1O [stibogluconate] (first compound 0.4 µM, partner dose 2 µM) | 67 | 42.9 | 76 | 125 | 90.6 | 55 | 41.4 | 165
Cn1sc(=O)n(Cc2ccccc2)c1=O + CS(=O)(=O)c1ccc(C(=O)Nc2ccc(Cl)c(-c3ccccn3)c2)c(Cl)c1 [vismodegib] (first compound 0.4 µM, partner dose 1 µM) | 67.5 | 75.2 | 151 | 47.9 | 75.1 | 68.1 | 72.4 | 96
CN(c1ncccc1CNc1nc(Nc2ccc3c(c2)CC(=O)N3)ncc1C(F)(F)F)S(C)(=O)=O + C[C@]1(c2nc3c(C(N)=O)cccc3[nH]2)CCCN1 [Veliparib] (first compound 0.08 µM, partner dose 1.4 µM) | 23.9 | 148 | 101 | 61.3 | 67.2 | 113 | 27 | 98.3
CCCCCCCCc1ccc(CCC(N)(CO)CO)cc1 [fingolimod] + O=C(O)[C@@H]1[O][Sb](=[O])([O][Sb]2(=[O])[O][C@H]([C@H](O)CO)[C@H](O)[C@H](C(=O)O)[O]2)[O][C@H]([C@H](O)CO)[C@@H]1O [stibogluconate] (first compound 2 µM, partner dose 2 µM) | 73.8 | 98.7 | 68.9 | 79.8 | 54.8 | 84.4 | 36.6 | 74.9
Cn1cnc2c(F)c(Nc3ccc(Br)cc3Cl)c(C(=O)NOCCO)cc21 [selumetinib] + OCc1c[nH]c2ccccc12 [Indole-3-carbinol] (first compound 0.015 µM, partner dose 0.8 µM) | 231 | 189 | 64.2 | 73.1 | 163 | 31.7 | 59.7 | 215
C[C@]1(O)C[C@@H](c2nc(-c3ccc4ccc(-c5ccccc5)nc4c3)c3c(N)nccn32)C1 + CN(c1ncccc1CNc1nc(Nc2ccc3c(c2)CC(=O)N3)ncc1C(F)(F)F)S(C)(=O)=O [PF562271] (first compound 0.4 µM, partner dose 0.08 µM) | 201 | 47.2 | 222 | 207 | 97.5 | 156 | 106 | 14.8
C[C@@H](N)c1ccc(C(=O)Nc2ccnc3[nH]ccc23)cc1 + Nc1nc(F)nc2c1ncn2[C@@H]1O[C@H](CO)[C@@H](O)[C@@H]1O [fludarabine] (first compound 0.4 µM, partner dose 0.2 µM) | 135 | 2790 | 36 | 43.8 | 399 | 2860 | 732 | 233
C[C@]1(O)C[C@@H](c2nc(-c3ccc4ccc(-c5ccccc5)nc4c3)c3c(N)nccn32)C1 + Cc1cc(Nc2cc(N3CCN(C)CC3)nc(/C=C/c3ccccc3)n2)n[nH]1 [ENMD2076] (first compound 0.4 µM, partner dose 0.04 µM) | 128 | 57.1 | 141 | 91.9 | 78.9 | 132 | 166 | 98.3
COc1ccc(C2=N[C@@H](c3ccc(Cl)cc3)[C@@H](c3ccc(Cl)cc3)N2C(=O)N2CCNC(=O)C2)c(OC(C)C)c1 [Nutlin-3] + Cn1c(=O)n(-c2ccc(C(C)(C)C#N)cc2)c2c3cc(-c4cnc5ccccc5c4)ccc3ncc21 [NVP-BEZ235] (first compound 0.1 µM, partner dose 0.004 µM) | 118 | 92.2 | 42.1 | 88 | 63 | 94.7 | 98.7 | 141
CCCCCCCCc1ccc(CCC(N)(CO)CO)cc1 [fingolimod] + CC(C)C[C@H](NC(=O)[C@H](Cc1ccccc1)NC(=O)c1cnccn1)B(O)O [Bortezomib] (first compound 2 µM, partner dose 0.001 µM) | 104 | 116 | 251 | 52.7 | 84.1 | 237 | 28.9 | 60.2
Cn1cnc2c(F)c(Nc3ccc(Br)cc3Cl)c(C(=O)NOCCO)cc21 [selumetinib] + CC(=O)O[C@@]12CO[C@@H]1C[C@H](O)[C@@]1(C)C(=O)[C@H](O)C3=C(C)[C@@H](OC(=O)[C@H](O)[C@@H](NC(=O)OC(C)(C)C)c4ccccc4)C[C@@](O)([C@@H](OC(=O)c4ccccc4)[C@H]21)C3(C)C [Docetaxel] (first compound 0.015 µM, partner dose 0.0001 µM) | 500 | 465 | 273 | 227 | 260 | 313 | 130 | 398
CN(c1ncccc1CNc1nc(Nc2ccc3c(c2)CC(=O)N3)ncc1C(F)(F)F)S(C)(=O)=O + O=C(O)[C@@H]1[O][Sb](=[O])([O][Sb]2(=[O])[O][C@H]([C@H](O)CO)[C@H](O)[C@H](C(=O)O)[O]2)[O][C@H]([C@H](O)CO)[C@@H]1O [stibogluconate] (first compound 0.08 µM, partner dose 2 µM) | 156 | 37.9 | 106 | 86.5 | 83.2 | 94.9 | 88.2 | 48.9
C[C@]1(O)C[C@@H](c2nc(-c3ccc4ccc(-c5ccccc5)nc4c3)c3c(N)nccn32)C1 + O=C(O)c1ccc2c(c1)nc(Nc1cccc(Cl)c1)c1ccncc12 [CX4945] (first compound 0.4 µM, partner dose 0.4 µM) | 175 | 147 | 28.8 | 61 | 71.3 | 85 | 46.9 | 175
NC1(c2ccc(-c3nc4ccn5c(=O)[nH]nc5c4cc3-c3ccccc3)cc2)CCC1 + C[C@]1(c2nc3c(C(N)=O)cccc3[nH]2)CCCN1 [Veliparib] (first compound 0.4 µM, partner dose 1.4 µM) | 28.7 | 164 | 215 | 108 | 154 | 41.1 | 91 | 54.9
CC1(C)CCC(c2ccc(Cl)cc2)=C(CN2CCN(c3ccc(C(=O)NS(=O)(=O)c4ccc(N[C@H](CCN5CCOCC5)CSc5ccccc5)c(S(=O)(=O)C(F)(F)F)c4)cc3)CC2)C1 + Clc1ccc(Nc2nnc(Cc3ccncc3)c3ccccc23)cc1 [vatalanib] (first compound 0.4 µM, partner dose 2 µM) | 188 | 731 | 399 | 285 | 212 | 89.8 | 390 | 93.1
C[C@@H](N)c1ccc(C(=O)Nc2ccnc3[nH]ccc23)cc1 + Nc1ccn([C@@H]2O[C@H](CO)[C@@H](O)C2(F)F)c(=O)n1 [gemcitabine] (first compound 0.4 µM, partner dose 0.0004 µM) | 151 | 257 | 102 | 181 | 117 | 133 | 70.8 | 38.5
Cn1sc(=O)n(Cc2ccccc2)c1=O + CCCCCCCCc1ccc(CCC(N)(CO)CO)cc1 [fingolimod] (first compound 0.4 µM, partner dose 2 µM) | 99.3 | 39.3 | 198 | 44.8 | 154 | 109 | 20.3 | 59.5
CCCCCCCCc1ccc(CCC(N)(CO)CO)cc1 [fingolimod] + Clc1ccc(Nc2nnc(Cc3ccncc3)c3ccccc23)cc1 [vatalanib] (first compound 2 µM, partner dose 2 µM) | 136 | 142 | 182 | 159 | 45.2 | 100 | 55.4 | 113
Cn1cnc2c(F)c(Nc3ccc(Br)cc3Cl)c(C(=O)NOCCO)cc21 [selumetinib] + C[C@]1(O)C[C@@H](c2nc(-c3ccc4ccc(-c5ccccc5)nc4c3)c3c(N)nccn32)C1 [OSI906] (first compound 0.015 µM, partner dose 0.4 µM) | 324 | 70.9 | 102 | 92 | 90.4 | 374 | 282 | 154

Part of the list above, reduced to cleaved PARP positive nuclei fraction (SkMel28) [%] and cleaved PARP positive nuclei fraction (RPMI7951) [%].
Compound | cleaved PARP positive nuclei fraction (SkMel28) [%] | cleaved PARP positive nuclei fraction (RPMI7951) [%]
Cn1sc(=O)n(Cc2ccccc2)c1=O + CS(=O)(=O)c1ccc(C(=O)Nc2ccc(Cl)c(-c3ccccn3)c2)c(Cl)c1 [vismodegib] (first compound 0.4 µM, partner dose 1 µM) | 75.1 | 151
C[C@]1(O)C[C@@H](c2nc(-c3ccc4ccc(-c5ccccc5)nc4c3)c3c(N)nccn32)C1 + Cc1cc(Nc2cc(N3CCN(C)CC3)nc(/C=C/c3ccccc3)n2)n[nH]1 [ENMD2076] (first compound 0.4 µM, partner dose 0.04 µM) | 78.9 | 141

Source: the supplement of paper PMC4604168 (melanoma cell lines)
